# Percent effect of library compounds

By UniProt entry, the sequences of proteins in these tests, tags left out. Residues count along the entry.
UniProt P9WFT3, whole entry: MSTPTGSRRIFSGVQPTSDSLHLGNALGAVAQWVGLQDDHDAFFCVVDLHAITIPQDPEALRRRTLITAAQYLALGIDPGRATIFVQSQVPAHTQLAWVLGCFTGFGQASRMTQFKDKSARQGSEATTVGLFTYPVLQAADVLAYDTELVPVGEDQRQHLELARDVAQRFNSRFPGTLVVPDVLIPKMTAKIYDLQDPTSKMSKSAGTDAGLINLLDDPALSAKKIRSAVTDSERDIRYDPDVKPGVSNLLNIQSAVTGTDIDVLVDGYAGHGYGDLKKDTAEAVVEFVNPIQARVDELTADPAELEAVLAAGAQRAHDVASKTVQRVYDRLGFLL
UniProt Q8IDJ8, 1-583: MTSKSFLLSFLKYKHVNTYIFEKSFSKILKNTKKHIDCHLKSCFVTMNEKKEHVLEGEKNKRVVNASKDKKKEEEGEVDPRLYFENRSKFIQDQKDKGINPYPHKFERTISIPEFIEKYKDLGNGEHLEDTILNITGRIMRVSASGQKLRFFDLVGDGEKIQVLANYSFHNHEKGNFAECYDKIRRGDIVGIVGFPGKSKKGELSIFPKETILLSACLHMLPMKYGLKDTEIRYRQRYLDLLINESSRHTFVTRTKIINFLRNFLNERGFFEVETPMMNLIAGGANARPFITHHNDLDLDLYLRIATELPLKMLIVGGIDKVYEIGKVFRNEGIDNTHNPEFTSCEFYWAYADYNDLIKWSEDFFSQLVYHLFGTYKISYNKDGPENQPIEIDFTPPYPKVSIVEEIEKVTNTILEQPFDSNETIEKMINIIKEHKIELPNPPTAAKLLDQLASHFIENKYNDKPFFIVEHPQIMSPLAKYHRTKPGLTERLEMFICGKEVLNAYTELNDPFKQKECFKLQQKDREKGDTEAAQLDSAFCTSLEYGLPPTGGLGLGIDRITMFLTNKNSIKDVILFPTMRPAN
UniProt P9WNZ1, whole entry: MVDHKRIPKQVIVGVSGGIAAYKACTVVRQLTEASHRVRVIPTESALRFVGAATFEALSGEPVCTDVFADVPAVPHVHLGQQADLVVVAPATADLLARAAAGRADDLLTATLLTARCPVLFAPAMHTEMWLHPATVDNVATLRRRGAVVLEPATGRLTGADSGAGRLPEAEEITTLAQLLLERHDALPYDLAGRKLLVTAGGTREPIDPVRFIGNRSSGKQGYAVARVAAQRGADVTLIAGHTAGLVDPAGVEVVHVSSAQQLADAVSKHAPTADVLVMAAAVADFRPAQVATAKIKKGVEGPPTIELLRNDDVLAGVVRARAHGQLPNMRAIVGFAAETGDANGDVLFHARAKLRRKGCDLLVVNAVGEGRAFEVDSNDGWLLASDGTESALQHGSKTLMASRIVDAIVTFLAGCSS
UniProt P9WPC5, whole entry: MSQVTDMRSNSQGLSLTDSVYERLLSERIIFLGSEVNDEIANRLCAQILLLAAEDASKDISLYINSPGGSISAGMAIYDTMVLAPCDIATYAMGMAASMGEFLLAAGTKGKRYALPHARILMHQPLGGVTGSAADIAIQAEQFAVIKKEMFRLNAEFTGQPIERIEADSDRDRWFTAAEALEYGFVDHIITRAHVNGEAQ
UniProt P9WPC3, whole entry partner: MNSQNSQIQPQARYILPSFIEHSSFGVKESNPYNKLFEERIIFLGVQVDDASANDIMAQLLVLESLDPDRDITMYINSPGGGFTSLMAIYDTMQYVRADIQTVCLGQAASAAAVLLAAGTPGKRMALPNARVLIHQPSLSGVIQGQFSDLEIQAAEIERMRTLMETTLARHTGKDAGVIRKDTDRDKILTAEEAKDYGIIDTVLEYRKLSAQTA
UniProt Q4DA54, 1-478: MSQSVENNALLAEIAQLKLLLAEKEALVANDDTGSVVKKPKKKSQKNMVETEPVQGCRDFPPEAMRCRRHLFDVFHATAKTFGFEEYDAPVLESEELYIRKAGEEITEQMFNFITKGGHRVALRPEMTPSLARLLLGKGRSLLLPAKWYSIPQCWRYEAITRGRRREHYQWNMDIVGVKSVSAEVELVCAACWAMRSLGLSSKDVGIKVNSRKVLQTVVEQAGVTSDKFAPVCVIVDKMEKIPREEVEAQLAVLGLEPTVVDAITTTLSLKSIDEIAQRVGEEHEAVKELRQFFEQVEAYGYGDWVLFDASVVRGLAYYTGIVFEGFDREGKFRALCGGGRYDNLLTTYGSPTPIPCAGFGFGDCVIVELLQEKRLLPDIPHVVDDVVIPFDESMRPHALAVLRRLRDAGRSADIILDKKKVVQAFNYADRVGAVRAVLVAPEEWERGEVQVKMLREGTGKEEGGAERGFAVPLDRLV

Source: ChEMBL document CHEMBL3988442, “University of Dundee, Small-Polar-MMV Screening Library” (2021).

A: 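Enzyme assay of tryptophanyl-tRNA synthetase; the read-out is not stated. Target: Tryptophan-tRNA ligase, Mycobacterium tuberculosis (UniProt P9WFT3). Concentration: 10 µM. Direction is not recorded; retested compounds ran higher, which suggests that high means inhibition. Of about 65,000 compounds tested this way, about 64 (0.098%) reached 50% or more in at least one test.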
B: 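Enzyme assay of the cytosolic lysyl-tRNA synthetase in 384-well plates, read by luminescence. Target: Lysine-tRNA ligase, Plasmodium falciparum 3D7 (UniProt Q8IDJ8). Tested at 30 µM. Higher reads as stronger inhibition, judged from the few compounds that gave an IC50. About 69,000 compounds were tested under these conditions; 0.071% (about 49) showed 50% or more at least once.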
C: 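Enzyme assay of CoaBC with a phosphate dye (Biomol Green) read at 650 nm. Target: Coenzyme A biosynthesis protein CoaBC, Mycobacterium tuberculosis (UniProt P9WNZ1). Compounds at 30 µM. Higher reads as stronger inhibition, judged from the few compounds that gave an IC50. Most strong results did not repeat in a second test. About 67,000 compounds were tested under these conditions; 0.06% (about 40) showed 50% or more at least once.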
D: 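ClpP1P2, Mycobacterium tuberculosis (UniProt P9WPC5 and UniProt P9WPC3). Protease assay of ClpP1P2, read by the AMC dye that it sets free. Compounds at 50 µM. Direction is inferred from only a few compounds that gave an IC50; most scored high, so higher reads as stronger inhibition. Most other retested compounds had strongly negative values. Of about 69,000 compounds tested this way, about 10 (0.015%) reached 50% or more in at least one test.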
E: 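Enzyme assay of histidyl-tRNA synthetase; the read-out is not stated. Target: Histidine-tRNA ligase, Trypanosoma cruzi CL Brener (UniProt Q4DA54). Concentration: 30 µM. Higher reads as stronger inhibition (inferred: compounds with an IC50 in retests scored well above the rest). Of about 69,000 compounds tested this way, about 31 (0.045%) reached 50% or more in at least one test.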

The filed quantity is “Percent Effect” (%). How 0% and 100% were set is not recorded. Most values in the screen are low, and negative values occur. The compounds are a random part of those screened. A dash means the value is not listed here; it may have been measured.

| # | SMILES | A | B | C | D | E |
|---|---|---|---|---|---|---|
| 1 | `Cc1cc2c(cc1Cl)C=CC1(CCN(C(=O)N3CCOCC3)CC1)O2` | 21.24 | -1.425 | 1.826 | -28.25 | -0.8571 |
| 2 | `COCCN1CCOCC12CCN(c1ccc(C#N)cc1)CC2` | -0.9709 | 17.61 | - | 1.648 | 10.13 |
| 3 | `O=S1(=O)NC2(CCCN(Cc3ccc(Cl)cc3)C2)COc2ccccc21` (centres unmarked) | 21.87 | 1.891 | 2.368 | 17.42 | 6.509 |
| 4 | `Cn1ncnc1NS(=O)(=O)c1ccccc1` | -1.343 | 1.091 | 5.832 | -6.66 | 4.082 |
| 5 | `CCS(=O)(=O)N1CCCCC1c1nc(C(C)C)no1` (centres unmarked) | -1.655 | 7.926 | -1.02 | -24.97 | -1.339 |
| 6 | `CC(C)C(=O)N1CCC2(CC1)COCCN2Cc1ccc(F)cc1` | 0.2292 | 4.398 | 5.477 | 11.61 | 0.8403 |
| 7 | `O=C(Cc1ccsc1)N1C[C@@H]2C[C@@H](c3nnc(C4CC4)o3)O[C@@H]2C1` | -7.153 | 0.1314 | -1.525 | -17.56 | 5.464 |
| 8 | `O=C(NCc1nnc2n1CCCC2)N1CCc2ccccc2C1` | 1.267 | 7.065 | 7.311 | 9.61 | 1.128 |
| 9 | `CCCN(C(=O)c1cnccn1)c1nc2c(s1)CCc1c-2cnn1C` | - | 10.83 | 6.618 | 23.72 | 14.89 |
| 10 | `O=C(C1CCC1)N1CCCC1c1nnc2n1CCCCC2` (centres unmarked) | 5.629 | 5.238 | 8.489 | 8.143 | 3.743 |
| 11 | `CC(C)C(C)NC(=O)Nc1cccc(OCC#N)c1` (centres unmarked) | -1.943 | 2.527 | 4.968 | 3.383 | 3.867 |
| 12 | `Cn1c(=O)oc2ccc(NC(=O)N3CCOCC3)cc21` | 6.295 | -4.254 | - | 15.11 | -5.195 |
| 13 | `Fc1ccc(-c2nnc(CN3CCn4c(nnc4C4CC4)C3)o2)cc1` | 2.956 | -0.9212 | -0.1304 | 2.084 | 4.151 |
| 14 | `CCN(C1CCN(c2cccc(F)c2C(C)=O)CC1)S(C)(=O)=O` | 0.404 | 4.921 | 2.545 | -14.36 | 4.082 |
| 15 | `CCc1n[nH]c(C(=O)NCCn2ccnc2C)c1C` | -1.234 | 2.194 | 7.975 | -1.585 | 12.35 |
| 16 | `NC(=O)c1ccc(N2CCCCC2)c(NC(=O)c2cncc(Br)c2)c1` | -0.9114 | 8.076 | -4.091 | 13.95 | 0.8368 |
| 17 | `CCCNC(=O)c1nc2c(o1)CN(c1ncccn1)C2` | 0.9709 | 14.3 | - | 3.717 | 8.861 |
| 18 | `Cc1cc(CNC(=O)N2CCOC(c3ccccc3Cl)C2)no1` (centres unmarked) | -1.943 | 3.981 | 4.204 | -2.025 | 6.077 |
| 19 | `Cn1cc(C2COC3(CCN(C(=O)c4ccsc4)CC3)C2)cn1` (centres unmarked) | -1.564 | 3.112 | 3 | 1.064 | 14.71 |
| 20 | `O=C(CCc1ccccc1)N1C[C@@H]2CN(Cc3ccoc3)CCO[C@@H]2C1` | -3.108 | -1.239 | 5.81 | -3.442 | 3.061 |
| 21 | `O=C(c1cnco1)N1C[C@@H]2CC[C@H](Oc3ccccc3F)[C@@H]2C1` | -1.589 | -13.39 | 3.056 | -1.381 | 7.027 |
| 22 | `CCN(C(=O)c1cc2c([nH]c1=O)CCCC2=O)C1CCCCC1` | -0.1235 | 2.221 | -3.676 | 2.304 | 8.333 |
| 23 | `CC(C)(C#N)c1ccc(NS(=O)(=O)CC2CCCCO2)cc1` (centres unmarked) | -6.388 | 3.867 | 2.384 | -15.21 | 1.463 |
| 24 | `CN1C(=O)[C@H]2CC[C@@H]1CN(C(=O)c1nnc3n1CCCCC3)C2` | 4.815 | 5.246 | -3.186 | -7.854 | 7.143 |
| 25 | `O=C(CCOc1cccc(Cl)c1)N1CCN(c2cnccn2)CC1` | 15.62 | -4.756 | -11.8 | -18.49 | 5.413 |
| 26 | `Cc1cnn(CCC(=O)N2CCCC(c3nc(C)c(C)s3)C2)c1` (centres unmarked) | -4.379 | -1.376 | 1.048 | -13.32 | 6.105 |
| 27 | `O[C@@H]1C[C@@](CNCC2CC2)(COc2cccnc2)C[C@@H]1O` | -0.2276 | 5.095 | 11.26 | -2.229 | 2.174 |
| 28 | `Nc1nc2nc(C3CCCN(C(=O)c4cscn4)C3)ccc2s1` (centres unmarked) | 0.75 | -1.249 | -0.9162 | 21.71 | 2.151 |
| 29 | `CN(C)c1ccc(CNC(=O)NCCc2cn3ccccc3n2)cn1` | -7.714 | 0.04133 | 6.832 | 1.307 | 3.152 |
| 30 | `CCC1CNCc2cc3c(C)ccc(C)c3nc2O1` (centres unmarked) | -4.023 | 2.384 | 4.11 | -43.53 | 4.857 |
| 31 | `O=C(Cc1c[nH]c(=O)[nH]c1=O)N1CCC2(CCC(=O)N(C3CC3)C2)CC1` | -2.599 | 1.11 | 9.677 | -5.974 | -2.793 |
| 32 | `O=C(NCCC1CCN(CC(F)(F)F)CC1)C1CCCOC1` (centres unmarked) | -3.088 | -0.3581 | -5.374 | -15.43 | 2.212 |
| 33 | `Cc1nccc(N2CC[C@@H]3[C@@H](CCC(=O)N3CCc3ccccc3)C2)n1` | -1.653 | 0.6744 | 1.814 | -5.913 | 7.143 |
| 34 | `Cc1cc(C)n(CC2CN(Cc3noc(C4CC4)n3)CCO2)n1` (centres unmarked) | -0.1704 | 0.2948 | -5.094 | -17.82 | 4.843 |
| 35 | `Cc1ncc(CNC(=O)CCc2cccs2)c(C2CCCN2C)n1` (centres unmarked) | - | 5.413 | 4.358 | -2.305 | 11.11 |
| 36 | `COc1cccc(N2CCN(C(=O)c3ccc(=O)n(C)c3)CC2)c1` | -1.821 | 5.08 | 1.446 | 0.2541 | 12.7 |
| 37 | `NC(=O)c1cccc(OCC(=O)NS(=O)(=O)c2ccc3c(c2)CCC3)c1` | -9.225 | 1.466 | -1.053 | -16.83 | 4.985 |
| 38 | `CC(NC(=O)CCn1cccn1)c1cccs1` (centres unmarked) | -6.742 | -0.9309 | -3.321 | -10.8 | -1.149 |
| 39 | `CN(C)C1CCN(C(=O)Cc2csc(-c3ncccn3)n2)CC1` | -5.461 | 3.194 | 3.422 | -92.26 | 7.692 |
| 40 | `COc1ccc(N2CCC(N(C)C(C)C(=O)N(C)C)CC2)cc1` (centres unmarked) | -1.455 | -1.255 | -1.208 | 10.7 | 5.806 |
| 41 | `Cc1cc(NC2CCN(c3ccc(F)cc3)CC2)n2nc(C)cc2n1` | 1.49 | -0.05438 | 2.689 | -4.063 | 17.49 |
| 42 | `CC(C)(O)CN1CCN(C(=O)COCC2CC2)CC1` | -4.103 | 5.688 | -5.405 | 6.418 | 2.469 |
| 43 | `O=C1CCCc2[nH]c(=O)c(C(=O)N(CC3CCCCC3)C3CC3)cc21` | 0.1235 | 4.112 | -0.9804 | -9.4 | 7.143 |
| 44 | `Cc1ccc(F)c(NC(=O)CCC(=O)N(C)Cc2nc(C)c[nH]2)c1` | -1.867 | 2.23 | 0 | -11.76 | 2.353 |
| 45 | `Cn1ccnc1CN1CCC(CCCc2ccccn2)(C(N)=O)CC1` | -8.683 | 0.5436 | -4.54 | 8.451 | 7.752 |
| 46 | `COCc1noc(-c2cc(Cl)c3c(c2)OCCCO3)n1` | -0.5439 | -0.5295 | 1.392 | -13.12 | 1.22 |
| 47 | `Cc1cnc(C2(C)CCN(Cc3csc(C)n3)CC2)s1` | -7.843 | 0.3495 | 0.1236 | -3.06 | 7.605 |
| 48 | `Cc1n[nH]c2c1C(c1ccc(O)cc1)SCC(=O)N2` (centres unmarked) | -2.799 | 4.389 | 0.1211 | 0.9676 | 1.98 |
| 49 | `Cc1cnn(CC2CCCCN2Cc2ncc(C(C)(C)C)o2)c1` (centres unmarked) | -1.168 | 1.219 | -8.129 | -9.915 | 2.299 |
| 50 | `CC1=C(c2ccc(F)cc2)S(=O)(=O)N=C1N1CCc2ccccc21` | -0.2935 | 1.105 | 3.249 | 3.872 | 9.548 |
| 51 | `COc1c(C2CCCN2CC(=O)N(C)Cc2ccco2)c(C)nn1C` (centres unmarked) | -0.9266 | -5.156 | -5.951 | -0.5353 | 3.478 |
| 52 | `CCN(CC)[C@@H]1CN(Cc2cnn(C)c2)[C@@H]2COC[C@H]12` | -4.148 | 0.616 | 4.684 | 6.748 | 6.897 |
| 53 | `COc1c(CNCCNC(=O)c2ccco2)c(C)nn1C` | -2.041 | 11.14 | 1.012 | 7.975 | 3.448 |
| 54 | `COc1ccc(CN2CCc3c(nc(-c4ccccn4)[nH]c3=O)C2)cc1` | - | 2.451 | 8.824 | -1.57 | 6.383 |
| 55 | `CCNC(=O)CN1CCCN(C(=O)C2CCCc3[nH]ncc32)CC1` (centres unmarked) | 1.006 | 0.5224 | 5.727 | 5.33 | -0.8475 |
| 56 | `c1cncc(-c2nc(C3CC3)ncc2-c2ccnc(N3CCCC3)n2)c1` | - | 4.284 | 3.976 | -7.884 | 11.3 |

Once more, the final 5:

SMILES	A	B	C	D	E
CCN(CC)[C@@H]1CN(Cc2cnn(C)c2)[C@@H]2COC[C@H]12	-4.148	0.616	4.684	6.748	6.897
COc1c(CNCCNC(=O)c2ccco2)c(C)nn1C	-2.041	11.14	1.012	7.975	3.448
COc1ccc(CN2CCc3c(nc(-c4ccccn4)[nH]c3=O)C2)cc1	-	2.451	8.824	-1.57	6.383
CCNC(=O)CN1CCCN(C(=O)C2CCCc3[nH]ncc32)CC1 (centres unmarked)	1.006	0.5224	5.727	5.33	-0.8475
c1cncc(-c2nc(C3CC3)ncc2-c2ccnc(N3CCCC3)n2)c1	-	4.284	3.976	-7.884	11.3